Data reported in PMC7265490.
Results are given in words; binding and its absence hold for the method and conditions named. In cells and extracts the contact can be indirect. Some binding calls cover weakened binding; strength is not graded here.

Amino acid sequences for entries named in this document (tags omitted). A change or cut given only in a name is not applied to a line headed by its entry.
UniProt Q9UKV8: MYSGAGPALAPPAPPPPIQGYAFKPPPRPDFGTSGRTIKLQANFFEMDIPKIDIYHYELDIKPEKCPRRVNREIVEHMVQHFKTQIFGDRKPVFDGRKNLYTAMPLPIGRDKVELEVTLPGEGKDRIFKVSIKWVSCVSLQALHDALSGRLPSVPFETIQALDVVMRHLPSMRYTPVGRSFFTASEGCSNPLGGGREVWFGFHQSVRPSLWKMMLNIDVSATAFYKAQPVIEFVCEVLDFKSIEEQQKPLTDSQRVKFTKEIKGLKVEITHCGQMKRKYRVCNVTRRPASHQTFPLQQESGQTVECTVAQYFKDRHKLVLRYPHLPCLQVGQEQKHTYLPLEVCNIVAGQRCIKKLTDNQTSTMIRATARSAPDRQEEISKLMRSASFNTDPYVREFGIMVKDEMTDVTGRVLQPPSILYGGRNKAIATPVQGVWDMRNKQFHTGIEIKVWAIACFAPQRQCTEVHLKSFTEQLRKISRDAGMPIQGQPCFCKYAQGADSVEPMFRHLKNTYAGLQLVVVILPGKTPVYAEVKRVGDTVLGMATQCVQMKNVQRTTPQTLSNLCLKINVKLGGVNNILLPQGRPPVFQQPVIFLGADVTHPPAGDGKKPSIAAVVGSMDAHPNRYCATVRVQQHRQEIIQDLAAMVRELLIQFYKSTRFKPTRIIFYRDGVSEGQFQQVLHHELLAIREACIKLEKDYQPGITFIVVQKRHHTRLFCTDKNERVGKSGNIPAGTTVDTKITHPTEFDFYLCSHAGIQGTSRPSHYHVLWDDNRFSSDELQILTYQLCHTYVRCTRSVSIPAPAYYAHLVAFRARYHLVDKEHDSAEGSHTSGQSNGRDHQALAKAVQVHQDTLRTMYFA

Experiments:
[1] = target: FLAG-tagged AGO2-F2L3 (AGO2 PAZ mutant, F294A and L339A) (UniProt Q9UKV8); assay: co-IP; FLAG-tagged AGO2 constructs or GFP transfected into HEK293T; lysis in modRIPA buffer 48 h after transfection; anti-FLAG M2 magnetic beads, 4 °C overnight; washed five times with TBS; beads with or without RNase A/T1 (20 min, room temperature); Western blot for TUT4, TUT7 and AGO2
[2] = target: FLAG-tagged AGO2-WT (wild-type Argonaute 2) (UniProt Q9UKV8); assay: as above

B1: endogenous TUT7 (ZCCHC6/TENT3B/PAPD6) (enzyme, UniProt Q5VYS8 1-1495)
chain: MGDTAKPYFVKRTKDRGTMDDDDFRRGHPQQDYLIIDDHAKGHGSKMEKGLQKKKITPGNYGNTPRKGPCAVSSNPYAFKNPIYSQPAWMNDSHKDQSKRWLSDEHTGNSDNWREFKPGPRIPVINRQRKDSFQENEDGYRWQDTRGCRTVRRLFHKDLTSLETTSEMEAGSPENKKQRSRPRKPRKTRNEENEQDGDLEGPVIDESVLSTKELLGLQQAEERLKRDCIDRLKRRPRNYPTAKYTCRLCDVLIESIAFAHKHIKEKRHKKNIKEKQEEELLTTLPPPTPSQINAVGIAIDKVVQEFGLHNENLEQRLEIKRIMENVFQHKLPDCSLRLYGSSCSRLGFKNSDVNIDIQFPAIMSQPDVLLLVQECLKNSDSFIDVDADFHARVPVVVCREKQSGLLCKVSAGNENACLTTKHLTALGKLEPKLVPLVIAFRYWAKLCSIDRPEEGGLPPYVFALMAIFFLQQRKEPLLPVYLGSWIEGFSLSKLGNFNLQDIEKDVVIWEHTDSAAGDTGITKEEAPRETPIKRGQVSLILDVKHQPSVPVGQLWVELLRFYALEFNLADLVISIRVKELVSRELKDWPKKRIAIEDPYSVKRNVARTLNSQPVFEYILHCLRTTYKYFALPHKITKSSLLKPLNAITCISEHSKEVINHHPDVQTKDDKLKNSVLAQGPGATSSAANTCKVQPLTLKETAESFGSPPKEEMGNEHISVHPENSDCIQADVNSDDYKGDKVYHPETGRKNEKEKVGRKGKHLLTVDQKRGEHVVCGSTRNNESESTLDLEGFQNPTAKECEGLATLDNKADLDGESTEGTEELEDSLNHFTHSVQGQTSEMIPSDEEEEDDEEEEEEEEPRLTINQREDEDGMANEDELDNTYTGSGDEDALSEEDDELGEAAKYEDVKECGKHVERALLVELNKISLKEENVCEEKNSPVDQSDFFYEFSKLIFTKGKSPTVVCSLCKREGHLKKDCPEDFKRIQLEPLPPLTPKFLNILDQVCIQCYKDFSPTIIEDQAREHIRQNLESFIRQDFPGTKLSLFGSSKNGFGFKQSDLDVCMTINGLETAEGLDCVRTIEELARVLRKHSGLRNILPITTAKVPIVKFFHLRSGLEVDISLYNTLALHNTRLLSAYSAIDPRVKYLCYTMKVFTKMCDIGDASRGSLSSYAYTLMVLYFLQQRNPPVIPVLQEIYKGEKKPEIFVDGWNIYFFDQIDELPTYWSECGKNTESVGQLWLGLLRFYTEEFDFKEHVISIRRKSLLTTFKKQWTSKYIVIEDPFDLNHNLGAGLSRKMTNFIMKAFINGRRVFGIPVKGFPKDYPSKMEYFFDPDVLTEGELAPNDRCCRICGKIGHFMKDCPMRRKVRRRRDQEDALNQRYPENKEKRSKEDKEIHNKYTEREVSTKEDKPIQCTPQKAKPMRAAADLGREKILRPPVEKWKRQDDKDLREKRCFICGREGHIKKECPQFKGSSGSLSSKYMTQGKASAKRTQQES
- binding [1]: binds
- binding [2]: binds
